According to US20220265655A1, “METHODS OF TREATING INFLAMMATORY DISEASES” (Ribon Therapeutics, Inc., priority 2021, published 2022):
For at least one compound, name, drawing or mass did not settle the structure.

Legend:
[1] = tested on: DNCB-induced atopic dermatitis model; assay: DNCB-induced atopic dermatitis model (Example D); conditions: Compound 1 500 mg/kg PO BID, DEX ointment 70 mg topical QD
[2] = tested on: IMQ-induced psoriasis model; assay: Imiquimod (IMQ)-induced psoriasis model (Example E)

With `C[C@@H]1C[C@H]2[C@@H]3CCC4=CC(=O)C=C[C@]4(C)[C@@]3(F)[C@@H](O)C[C@]2(C)[C@@]1(O)C(=O)CO` [DEX, Dexamethasone] the “trans-epidermal water loss (TEWL) of back skin compared to vehicle” value [1] was “increased the water loss”, the “total clinical score (Erythema plus Thickness plus Scabbing) of back skin, effect vs vehicle” value ([1]; Day 9 to Day 23) was “significantly inhibited inflammation” and the “total clinical score (Erythema plus Thickness plus Scaling) of back skin, effect vs vehicle” value ([2]; Compound 1 500 mg/kg PO BID (P<0.001), DEX ointment topical QD (P<0.0001)) was “significantly inhibited inflammation starting on Day 1”. For the same compound, the ear thickness ([2]; DEX: Day 3-Day 7, P<0.0001, Compound 1: starting on Day 5 and especially on Day 7) was “potently suppressed”.
